Experimental data from PubChem BioAssay AID288 (DTP/NCI, 2004).
The list does not hold the whole screen: it gathers tests that were run many times, whatever their T/C, doses with no T/C, and many T/C values between a quarter and a half above the control. Other doses and runs of a compound stand elsewhere. T/C is the treated group as % of the vehicle group. Some doses have a count of surviving animals in place of a T/C: the source files T/C as zero there, which appears to mark a toxic dose or a test without result, not a measured value. Some survivor counts are full or nearly so, which does not show that the dose was tolerated: the source hardly ever lists a survival T/C far under the control, and the zero likely stands for such cases as well. Survivors were counted at the toxicity check, usually on the fifth day, unless a day is given; later deaths do not show. Schedule codes are those of the source, taken here to give the interval after Q, in days (D) or hours (H), and the number of doses after X. Where survival is the endpoint, the PubChem record calls one and a half times the control and up active, and a quarter to a half above the control has no call in these data; cut-offs in other NCI protocols can differ. Some T/C values are followed by the survivors on the day toxicity was checked, most often the fifth; where none is given, no animal had died by that day.

Tested on: BDF1 mice, M5076 sarcoma s.c., survival/tumor T/C
Assay: NCI In Vivo Anticancer Drug Screen. Data for tumor model Sarcoma M5076 (subcutaneous) in B6D2F1 (BDF1) mice
Description: The antitumor activity of compounds was measured in mice bearing transplantable tumors. Survival or tumor size were measured and the results are expressed as the measurement made in the treated group (T) divided by the measurement made in the vehicle treated control group (C). The tumor model used in this assay is Sarcoma M5076 (subcutaneous) in B6D2F1 (BDF1) mice

COc1cc(/C=C2\SC(=S)N(c3ccc(Cl)c(Cl)c3)C2=O)ccc1O
survivor count (T/C endpoint: median survival time, dose: 200.0 mg/kg/injection, schedule: Q01DX009 (ip), vehicle: saline with Tween-80, higher T/C = longer survival): 10 of 10 | survivor count (T/C endpoint: median tumor weight (est.), dose: 200.0 mg/kg/injection, schedule: Q01DX009 (ip), vehicle: saline with Tween-80, higher T/C = larger tumour): 5 of 10 on day 20

CN(N=O)C(=O)N[C@@H](C=O)[C@@H](O)[C@H](O)[C@H](O)CO
survivor count (T/C endpoint: mean tumor weight, dose: 150.0 mg/kg/injection, schedule: Q02DX011 (ip), vehicle: other, higher T/C = larger tumour): 0 of 10 on day 22 | survivor count (T/C endpoint: median tumor weight (est.), dose: 150.0 mg/kg/injection, schedule: Q02DX011 (ip), vehicle: other, higher T/C = larger tumour): 0 of 10 on day 22

CN(C)c1nc(N(C)C)nc(N(C)C)n1
T/C (T/C endpoint: median survival time, dose: 88.0 mg/kg/injection, schedule: Q02DX033 (ip), vehicle: saline with Tween-80, higher T/C = longer survival): 143 % of control | survivor count (T/C endpoint: median tumor weight (est.), dose: 240.0 mg/kg/injection, schedule: Q02DX011 (ip), vehicle: saline with Tween-80, higher T/C = larger tumour): 1 of 10 on day 22

CNC(=O)c1ccccc1C1(O)c2ccccc2CCc2ccccc21
survivor count (T/C endpoint: median survival time, dose: 100.0 mg/kg/injection, schedule: Q01DX009 (ip), vehicle: saline with Tween-80, higher T/C = longer survival): 10 of 10 on day 9

Nc1nncs1
survivor count (T/C endpoint: mean tumor weight, dose: 150.0 mg/kg/injection, schedule: Q02DX011 (ip), vehicle: acid diluted with saline, higher T/C = larger tumour): 0 of 10 on day 22 | survivor count (T/C endpoint: median survival time, dose: 100.0 mg/kg/injection, schedule: Q01DX009 (ip), vehicle: saline, higher T/C = longer survival): 9 of 9 | survivor count (T/C endpoint: median tumor weight (est.), dose: 50.0 mg/kg/injection, schedule: Q01DX009 (ip), vehicle: saline, higher T/C = larger tumour): 6 of 10 on day 17 | survivor count (T/C endpoint: median tumor weight (est.), dose: 100.0 mg/kg/injection, schedule: Q01DX009 (ip), vehicle: saline, higher T/C = larger tumour): 2 of 9 on day 17 | survivor count (T/C endpoint: median tumor weight (est.), dose: 150.0 mg/kg/injection, schedule: Q02DX011 (ip), vehicle: acid diluted with saline, higher T/C = larger tumour): 0 of 10 on day 22

O=NN(CCCl)C(=O)NCCCl
T/C (T/C endpoint: median survival time, dose: 1.5 mg/kg/injection, schedule: Q01DX009 (ip), vehicle: saline + alcohol, higher T/C = longer survival): 143 % of control | T/C (T/C endpoint: median survival time, dose: 3.0 mg/kg/injection, schedule: Q01DX009 (ip), vehicle: saline + alcohol, higher T/C = longer survival): 146 % of control | survivor count (T/C endpoint: median survival time, dose: 12.0 mg/kg/injection, schedule: Q01DX009 (ip), vehicle: saline + alcohol, higher T/C = longer survival): 10 of 10 on day 9 | survivor count (T/C endpoint: median tumor weight (est.), dose: 12.0 mg/kg/injection, schedule: Q01DX009 (ip), vehicle: saline + alcohol, higher T/C = larger tumour): 2 of 10 on day 20

OC(C1CO1)C(O)C1CO1 (stereo not given)
survivor count (T/C endpoint: mean tumor weight, dose: 8.0 mg/kg/injection, schedule: Q02DX011 (ip), vehicle: saline, higher T/C = larger tumour): 0 of 10 on day 22 | T/C (T/C endpoint: median survival time, dose: 4.0 mg/kg/injection, schedule: Q01DX009 (ip), vehicle: saline, higher T/C = longer survival): 144 % of control | survivor count (T/C endpoint: median survival time, dose: 8.0 mg/kg/injection, schedule: Q01DX009 (ip), vehicle: saline, higher T/C = longer survival): 0 of 10 on day 9 | survivor count (T/C endpoint: median survival time, dose: 16.0 mg/kg/injection, schedule: Q01DX009 (ip), vehicle: saline, higher T/C = longer survival): 0 of 10 on day 9 | survivor count (T/C endpoint: median tumor weight (est.), dose: 4.0 mg/kg/injection, schedule: Q01DX009 (ip), vehicle: saline, higher T/C = larger tumour): 6 of 10 on day 20 | survivor count (T/C endpoint: median tumor weight (est.), dose: 8.0 mg/kg/injection, schedule: Q01DX009 (ip), vehicle: saline, higher T/C = larger tumour): 0 of 10 on day 20 | survivor count (T/C endpoint: median tumor weight (est.), dose: 8.0 mg/kg/injection, schedule: Q02DX011 (ip), vehicle: saline, higher T/C = larger tumour): 0 of 10 on day 22 | survivor count (T/C endpoint: median tumor weight (est.), dose: 16.0 mg/kg/injection, schedule: Q01DX009 (ip), vehicle: saline, higher T/C = larger tumour): 0 of 10 on day 20

COC12C(COC(N)=O)C3=C(C(=O)C(C)=C(N)C3=O)N1CC1C2N1C (stereo not given)
survivor count (T/C endpoint: median tumor weight (est.), dose: 12.0 mg/kg/injection, schedule: Q02DX011 (ip), vehicle: saline, higher T/C = larger tumour): 2 of 10 on day 22

Cc1ncc([N+](=O)[O-])n1CCO
T/C (T/C endpoint: median survival time, dose: 1000.0 mg/kg/injection, schedule: Q01DX001 (ip), vehicle: saline, evaluated on day 16, higher T/C = longer survival): 109 % of control [8 of 9 alive] | T/C (T/C endpoint: median survival time, dose: 1000.0 mg/kg/injection, schedule: Q01DX001 (ip), vehicle: saline, evaluated on day 17, higher T/C = longer survival): 108 % of control | T/C (T/C endpoint: median survival time, dose: 1000.0 mg/kg/injection, schedule: Q01DX001 (ip), vehicle: saline, evaluated on day 43, higher T/C = longer survival): 102 % of control [7 of 8 alive on day 43] | T/C (T/C endpoint: median survival time, dose: 1000.0 mg/kg/injection, schedule: Q01DX001 (ip), vehicle: saline, evaluated on day 50, higher T/C = longer survival): 109 % of control [9 of 10 alive on day 50] | T/C (T/C endpoint: median survival time, dose: 1000.0 mg/kg/injection, schedule: Q01DX001 (ip), vehicle: saline, evaluated on day 75, higher T/C = longer survival): 108 % of control
